This is one part of the list. The calls rarely recur for the same compound in another form.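 In K562 cells expressing nanoluciferase-fused kinases, luminescence was recorded at 4 h intervals between 2 and 18 h, normalized as percent of control with DMSO at 100% and a positive control at 0%. A significant (2 sigma) signal drop marks a time point as decreased. The authors' rule for a hit is not shown and takes in more than the number of time points.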
Molecular target: RAF1_S257L (clone: RAF1_mut) (UniProt P04049)
Assay: kinase-Nluc reporter destabilization hit call (1 = scored as downregulated) (binary); higher = compound decreases kinase abundance
Settings: K562; 2-18 h

Compound	kinase-Nluc reporter destabilization hit call
Cc1cccc(-c2[nH]c(C(C)(C)C)nc2-c2ccc3c(c2)OCO3)n1 (2.5 µM)	inactive: 0
Cc1cccc(Cn2nc(C)c3c(NC(=O)c4csc5c(N)ncnc45)cccc32)n1 (10 µM)	inactive: 0
CC[C@@H]1CN(C(=O)NCC(F)(F)F)C[C@@H]1c1cnc2cnc3[nH]ccc3n12 [Upadacitinib] (10 µM)	inactive: 0
CNS(=O)(=O)C[C@H]1CC[C@H](N(C)c2[nH]cnc3nccc2-3)CC1 [Oclacitinib (maleate)] (10 µM)	inactive: 0
COc1cc(-c2cnc(N)c(-c3ccc(NC(=O)c4cn(CC5CCOCC5)cc(-c5ccc(C)cn5)c4=O)cc3F)c2)ccc1OC[C@H]1COCCO1 [DS-1205b (free base)] (10 µM)	inactive: 0

— the supplement of paper PMC12823440, “Inhibitors supercharge kinase turnover through native proteolytic circuits” (Nature, 2025)
